From patent publication US6060448A, “Casein fragments having growth promoting activity” (Pepsyn Limited, priority 1995, dated 2000)
Part of at least one peptide drawing is inferred or uncertain, most often the ends. Ends that are not written are not given here.

Test system: Rama 27 cells
Assay: incorporation of [3H] thymidine into the DNA of Rama 27 cells (growth promoting / mitogenic assay)
Type: cell-based, rat
Settings: for growth promoting activity (incorporation of 3H-thymidine into DNA): Rama 27 rat mammary fibroblast cell line
Protocol: The growth promoting activity of different milk types was determined by precipitating caseins and assaying the supernatants for their ability to stimulate the incorporation of [3H] thymidine into the DNA of Rama 27 cells by known methodology (Smith et al, 1984).
The protein fractions A,B,C, of the casein digest where assayed for their ability to stimulate the incorporation of [3H] thymidine into the DNA of Rama 27 cells exactly as described previously.
In table 1, * indicates one unit of activity is defined as the amount of protein required to produce half maximal stimulation compared with 1% FCS when added to R27 cells.

Sequence | growth promoting activity (incorporation of 3H-thymidine into DNA) | activity when maintained at alkaline pH (synthetic peptide maintained at alkaline pH)
KVIPYVRYL [SEQ ID NO:1, LysValIleProTyrValArgTyrLeu] | showed bioactivity | substantially increased
TKVIPYVRYL [peak C, ThrLysValIleProTyrValArgTyrLeu] | active | –
